{
  "source": "patent US8940723B2",
  "about": "“Combination of a pyrroloquinoline compound and a beta-lactam antimicrobial agent, mupirocin or chlorhexidine” (Helperby Therapeutics Limited, priority 2010, dated 2015)",
  "tested_on": "clinically latent microorganisms",
  "test": "Screening for ability to kill clinically latent microorganisms (method of WO2000028074)",
  "type": "cell-based",
  "text": "International Patent Application, Publication Number WO2000028074 describes a method of screening compounds to determine their ability to kill clinically latent microorganisms. […] This observation has necessitated the development of novel antimicrobials which may be used to kill clinically latent microorganisms.\nBy way of example, WO2000028074 describes a suitable method of screening compounds to determine their ability to kill clinically latent microorganisms. A typical method may include the following steps: • (1) growing a bacterial culture to stationary phase; • (2) treating the stationary phase culture with one or more antimicrobial agents at a concentration and or time sufficient to kill growing bacteria, thereby selecting a phenotypically resistant sub-population; • (3) incubating a sample of the phenotypically resistant subpopulation with one or more test compounds or agents; and • (4) assessing any antimicrobial effects against the phenotypically resistant subpopulation.\nAccording to this method, the phenotypically resistant sub-population may be seen as representative of clinically latent bacteria which remain metabolically active in vivo and which can result in relapse or onset of disease.",
  "note": "At least one structure is not confirmed: it was looked up by name or label, or the drawing left a doubt.",
  "data": [
    {"smiles": "C[C@H]1COc2c(N3CCN(C)CC3)c(F)cc3c(=O)c(C(=O)O)cn1c23", "note": "[levofloxacin]", "values": [
      {"measurement": "activity against clinically latent microorganisms", "value": "little or no activity"}
    ]}
  ]
}
